# Measured values published in US20250297004A1, “NECTIN-4 BINDING AGENTS” (INNATE PHARMA, priority 2022, published 2025).
# Results are given in words; binding and its absence hold for the method and conditions named. Some entries that bind do so weakly or less than the wild type.
# T1: human Nectin-4 expressed on cells (human, UniProt Q96NY8 32-510)
# T1 sequence: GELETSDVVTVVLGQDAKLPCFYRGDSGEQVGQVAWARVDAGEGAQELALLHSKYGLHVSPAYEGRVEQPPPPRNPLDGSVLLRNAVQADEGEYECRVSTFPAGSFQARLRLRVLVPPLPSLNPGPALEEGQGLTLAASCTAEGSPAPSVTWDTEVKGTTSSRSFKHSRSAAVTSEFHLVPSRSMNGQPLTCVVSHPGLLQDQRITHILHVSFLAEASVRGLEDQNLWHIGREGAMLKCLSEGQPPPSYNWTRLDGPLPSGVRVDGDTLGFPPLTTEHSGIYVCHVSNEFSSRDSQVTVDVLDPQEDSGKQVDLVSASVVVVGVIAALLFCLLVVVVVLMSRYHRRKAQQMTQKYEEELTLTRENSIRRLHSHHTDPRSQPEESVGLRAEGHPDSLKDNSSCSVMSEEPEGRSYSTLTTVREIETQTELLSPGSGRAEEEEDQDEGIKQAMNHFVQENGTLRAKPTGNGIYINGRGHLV
# B1: chimeric parental 5E7 antibody (antibody, V domains shown)
# VH: QVQLQQPGAELVKPGASVKLSCKASGYIFTSYWMHWVKQRPGQGLEWIGEIDPSDSYTNYNQKFKGKATLTLDKSSSTTYMQLSSLTSEDSAVYYCVRGYGNYGDYWGQGTTLTVSS
# VL: DVVMTQAAFSNPVTLGTSASISCRSSKSLLHSNGITYLYWYLQKPGQSPQLLIYQMSNLASGVPDRFSSSGSGTDFTLRISRVEAEDVGVYYCAQNLELPWTFGGGTKLEIKR
# notes: Chimeric antibody, murine variable domains with human constant regions; also called ch5E7; CHG1-M-1N4-5E7
# Molecular target: T1, human Nectin-4 expressed on cells
# Test: flow cytometry on cells expressing Nectin-4
binder,measurement,value
B1,binding,binds
